According to PMC4426677, “Tubulin structure-based drug design for the development of novel 4β-sulfur-substituted podophyllum tubulin inhibitors with anti-tumor activity” (Scientific Reports, 2015):

Columns and labels:
tubulin = assay: Isothermal titration calorimetry (ITC) binding to tubulin; conditions: for increase in affinity of fragment when titrated against tubulin: MP and TG fragments; for ΔG of binding to tubulin (ITC) / ΔH of binding to tubulin (ITC): low c-value conditions
[1] = system: human lung adenocarcinoma cell line A549; assay: MTT cytotoxicity assay, A549; assay type: cell-based; conditions: for anti-tumor activity against A549 better than that of PTOX: IC50 ratio vs PTOX; for anti-tumor activity against A549 better than that of nocodazole: IC50 ratio vs nocodazole
Experimental: Cytotoxicity assays were performed on the human gastric carcinoma cell line BGC-823, the human lung adenocarcinoma cell line A549, the human hepatocellular liver carcinoma HepG2, and the normal human hepatic immortal cell line HL-7702. Cells (3500–13,000) were seeded into 96-well microtest plates in 100 μL of culture medium per well (Falcon, CA). The cells were treated in triplicate with a gradient concentration of test compounds and incubated at 37 °C in RPMI-1640 with 100 mg L^−1 kanamycin and 10% (v/v) fetal bovine serum in a humidified atmosphere containing 5% CO2 for 48 h. The plating efficiencies of the untreated cells varied between experiments with values ranging from 14 to 31% for the HL-7702 cells. For all cell lines, microculture tetrazolium [3-(4, 5-dimethylthiazol-2-yl)−2, 5-diphenyltetrazolium bromide, MTT; Sigma, St. Louis, MO] assay was performed to measure cytotoxic effects. […] The initial seeding densities varied among the cell lines to ensure a final absorbance reading in control (untreated) cultures within the range of 0.6–0.8 A492 units. […] Each test was performed in triplicate, and the absorbance readings between the triplicates varied by no more than 5%.
Data presented as means ± SD. Statistical analyses were performed by the analysis of variance (ANOVA). All statistical analyses were performed using Origin version 8.0 ([…], OriginLab Corp., Northampton, MA, USA). Sigmoidal dose responses and non-linear regression analyses were undertaken to identify half-maximal concentrations for each of the drugs. To evaluate differences in IC50 concentrations, analysis of variance combined with Tukey’s multiple range test was used.

| SMILES | increase in affinity of fragment when titrated against tubulin (tubulin) [times] | anti-tumor activity against A549 better than that of PTOX [1] [times] | anti-tumor activity against A549 better than that of nocodazole [1] [times] | ΔG of binding to tubulin (ITC) (tubulin) [kcal/mol] | ΔH of binding to tubulin (ITC) (tubulin) [kcal/mol] |
| --- | --- | --- | --- | --- | --- |
| Nc1nc2nc[nH]c2c(=S)[nH]1 [TG, 6-thioguanine, reference compound] | 12 |  |  |  |  |
| Sc1ncnc2nc[nH]c12 [MP, 6-mercaptopurine, reference compound] | 1.8 |  |  |  |  |
| COc1cc(C2c3cc4c(cc3C(Sc3ncnc5nc[nH]c35)C3COC(=O)C23)OCO4)cc(OC)c1OC (stereo not drawn) [Compound 4-MP-PTOX] |  | 17 | 24 | -3.4 | -7.4 |
| COc1cc(C2c3cc4c(cc3C(Sc3nc(N)nc5nc[nH]c35)C3COC(=O)C23)OCO4)cc(OC)c1OC (stereo not drawn) [Compound 4-TG-PTOX] |  | 34 | 47 | -3.1 | -5.3 |
| COc1cc([C@@H]2c3cc4c(cc3[C@H](O)[C@H]3COC(=O)[C@H]23)OCO4)cc(OC)c1OC [PTOX, podophyllotoxin, reference compound] |  |  |  | -8.3 | -18.9 |
